Data as given in PubChem BioAssay AID493246 (Drosophila RNAi Screening Center, 2011).
Assay: 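Genes fly cells need to grow and stay alive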 (primary screen). Cells: Drosophila Kc and S2R+ cells. Reagents: long dsRNA against Drosophila genes. Measurement: 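Cell number per well after knock-down, printed as raw plate values; calls were based on per-plate z-scores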. Direction: Kc cell number and S2R+ cell number: higher = more cells remaining. Active means: 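Active when the per-plate z-score of cell number is 3 or more in the direction of fewer cells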.
The screen tested about 21,000 reagents; below is an unselected part of those with a known target gene and a result. Of all reagents, 429 (2%) are marked active. 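Values are raw and not normalised between plates; calls rest on per-plate z-scores that were not deposited.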 Not stated in the record: the amount of reagent, the time to read-out.

Gene	DRSC id	Kc cell number, rep 1	Kc cell number, rep 2	S2R+ cell number, rep 1	S2R+ cell number, rep 2	outcome
Decay (Death executioner caspase related to Apopain/Yama)	DRSC16930	1.46e6	1.58e6	1.12e6	1.17e6	inactive
CG15233	DRSC04967	1.43e6	1.53e6	1.19e6	1.19e6	inactive
SP1029	DRSC16848	1.43e6	1.45e6	9.88e5	1.08e6	inactive
Mayo	DRSC14300	1.64e6	1.69e6	1.09e6	1.20e6	inactive
phr6-4 ((6-4)-photolyase)	DRSC03589	1.71e6	1.91e6	1.44e6	3.21e5	inactive
Scgalpha (Sarcoglycan alpha)	DRSC03076	1.52e6	1.62e6	1.32e6	1.42e6	inactive
CG31323	DRSC14901	1.59e6	1.74e6	1.07e6	1.21e6	inactive
CG5958	DRSC02915	1.55e6	1.44e6	1.08e6	1.22e6	inactive
SA1 (Stromalin 1)	DRSC03424	1.12e6	1.34e6	6.42e5	8.46e5	inactive
CecA2 (Cecropin A2)	DRSC16604	1.44e6	1.59e6	9.52e5	1.14e6	inactive
Zaf1 (ZAD and Architectural Function 1)	DRSC16121	1.49e6	1.46e6	1.33e6	1.35e6	inactive
PTP-ER (Protein tyrosine phosphatase-ERK/Enhancer of Ras1)	DRSC04636	1.23e6	1.38e6	1.04e6	1.11e6	inactive
CG2712	DRSC18589	5.32e5		8.66e5		inactive
RpL3 (Ribosomal protein L3)	DRSC16834	9.83e5	9.78e5	6.42e5	7.59e5	active
siz (schizo)	DRSC11622	1.49e6	1.70e6	1.32e6	1.28e6	inactive
siz (schizo)	DRSC11689	1.50e6	2.02e6	1.25e6	1.32e6	inactive
siz (schizo)	DRSC11690	1.72e6	1.66e6	1.48e6	1.56e6	inactive
pho (pleiohomeotic)	DRSC17219	1.59e6	1.68e6	1.05e6	1.17e6	inactive
Cpr78Ca (Cuticular protein 78Ca)	DRSC11651	1.56e6	1.64e6	1.27e6	1.37e6	inactive
CG10562	DRSC14257	5.33e5		8.01e5		inactive
CG3500	DRSC04379	1.57e6	1.61e6	1.18e6	1.28e6	inactive
CG5504	DRSC04701	1.34e6	1.48e6	1.02e6	1.02e6	inactive
CG34357	DRSC12211	1.38e6	1.47e6	1.28e6	1.34e6	inactive
CG34357	DRSC12238	1.55e6	1.61e6	1.08e6	1.15e6	inactive
CG34357	DRSC12334	1.36e6	1.41e6	1.28e6	1.37e6	inactive
Osi12 (Osiris 12)	DRSC12177	1.64e6	1.79e6	1.24e6	1.34e6	inactive
CG14561	DRSC11722	1.51e6	1.55e6	1.40e6	1.49e6	inactive
amos (absent MD neurons and olfactory sensilla)	DRSC03484	1.65e6	1.69e6	1.21e6	3.07e5	inactive
Ubc87F (Ubiquitin conjugating enzyme 87F)	DRSC16513	1.33e6	1.46e6	1.17e6	1.31e6	inactive
CG43861	DRSC02308	1.44e6	1.53e6	1.29e6	2.96e5	inactive
CG13442	DRSC06402	1.47e6	1.40e6	1.05e6	1.39e6	inactive
Zip71B (Zinc/iron regulated transporter-related protein 71B)	DRSC09686	1.31e6	1.39e6	1.26e6	1.35e6	inactive
RhoGDI	DRSC10919	1.53e6	1.62e6	1.21e6	1.25e6	inactive
CG43737	DRSC19609	1.54e6	1.56e6	1.17e6	1.22e6	inactive
CG15543	DRSC15081	1.63e6	1.67e6	1.03e6	1.21e6	inactive
Dbp73D (Dead box protein 73D)	DRSC11142	1.82e6	1.72e6	1.35e6	1.42e6	inactive
gogo (golden goal)	DRSC10070	1.53e6	1.73e6	1.06e6	1.16e6	inactive
gogo (golden goal)	DRSC10071	1.46e6	1.62e6	1.22e6	1.34e6	inactive
CG12229	DRSC09868	1.43e6	1.37e6	1.25e6	1.31e6	inactive
Tmtc3 (Transmembrane O-mannosyltransferase targeting cadherins 3)	DRSC04444	1.58e6	1.61e6	1.08e6	1.12e6	inactive

6 of these entries, set out differently:
Gene | DRSC id | Kc cell number, rep 1 | Kc cell number, rep 2 | S2R+ cell number, rep 1 | S2R+ cell number, rep 2 | outcome
CG13442 | DRSC06402 | 1.47e6 | 1.40e6 | 1.05e6 | 1.39e6 | inactive
Zip71B (Zinc/iron regulated transporter-related protein 71B) | DRSC09686 | 1.31e6 | 1.39e6 | 1.26e6 | 1.35e6 | inactive
RhoGDI | DRSC10919 | 1.53e6 | 1.62e6 | 1.21e6 | 1.25e6 | inactive
CG43737 | DRSC19609 | 1.54e6 | 1.56e6 | 1.17e6 | 1.22e6 | inactive
CG15543 | DRSC15081 | 1.63e6 | 1.67e6 | 1.03e6 | 1.21e6 | inactive
Dbp73D (Dead box protein 73D) | DRSC11142 | 1.82e6 | 1.72e6 | 1.35e6 | 1.42e6 | inactive
